Assay results published in patent publication US20210206850A1 (ACCURUS BIOSCIENCES, published 2021).
These are yes or no findings as the source states them, for the method shown. Some binding calls cover weakened binding; strength is not graded here.

B1: D36S4 mouse anti-human CD47 hybridoma antibody (antibody, V domains shown)
VH: EVKLEESGGGLVQPGGSMKLSCVASGFTFSRYWMNWVRQSPDKGLEWVAQIRLKSDNYETHYAESVKGRFTISRDDSKSSVYLQMNNLRAEDTGIYYCIEEGGYYVPFAYWGQGTLVTVSA
VL: DIVVSQSPSSLAVSAGEKVTMSCKSSQSLFKSRTRKNYLAWYQQRPGQSPKLLIYWASIRESGVPDRFTGSGSGTEFTLTISSVQAEDLAVYYCKQSYYLLTFGAGTKLELK
notes: Mouse hybridoma IgG
B2: D28S1 mouse anti-human CD47 hybridoma antibody (antibody, V domains shown)
VH: EVQLVESGGDLVKPGGSLKLSCAASGFTFTSYGMSWVRQTPDKRLEWVATINTGGSYTYYPDSVKGRFTISRDNAKNTLYLQMSSLKSEDTAMYYCARHTIKSLMDYWGQGTSVTVSS
VL: ETTVTQSPASLSMAIGEKVTIRCITSTDIDDDMNWYQQKPGEPPKLLISEGNTLRPGVPSRFSSSGYGTDFVFIIENMFSEDVADYYCLQSDNLPYTFGSGTKLEIK
notes: Mouse hybridoma IgG
B3: D8S1 (antibody, V domains shown)
VH: EVQLQQSVAELVRPGASVKLSCTVSGFNIKNTYIYWVKQRPEQGLEWIGRIDPANGNTKDAPKFQGKATMTADTSSNTAYLQLSSLTSEDTAIYYCARGYGSGFAYWGQGTLVTVSA
VL: DIQMTQTTSSLSASLGDRVTISCRASQDISNHLNWYQQKPDGIVKLLIYYTSRLHSGVPSRFSGSGSGTDYSLTISNLEQEDIATYFCQQGSTLPFTFGSGTKLEIK
notes: Mouse hybridoma form; the mouse/human chimeric form with the same V regions is m13; also called D8S1 mouse anti-human CD47 hybridoma antibody
B4: D96S1 mouse anti-human CD47 hybridoma antibody (antibody, V domains shown)
VH: EVQLQQSGAELVKPGASVKLSCTASGFNIKDTYIHWVKQRPEQGLEWIGRIDPANGNIKSDPKFQGKATVTADTSSNTAYLQLSSLTSEDTAVYYCARSYGSSFASWGQGTLVTVSP
VL: DIQMTQTTSSLSASLGDRVTISCRASQDISNHLNWYQQKPDGAVKLLIYYTSRLHSGVPSRFSGSGSGTDYSLTISNLEQEDIATYFCQQGSTFPYTFGGGTKLEIK
notes: Mouse hybridoma IgG
B5: D41S2 (antibody, V domains shown)
VH: EVQLQQSVAELVRPGASVKLSCTPSGFNIKNTYIYWVRQRPEQGLEWIGRIDPANGNTKDAPKFQGKATMTADTSSNTAYLQLSSLTSEDTAIYYCARGYGSGFAYWGQGTLVTVSA
VL: DIQMTQTTSSLSASLGDRVTISCRASQDISNHLNWYQQKPDGTVKLLIYYTSRLHSGVPSRFSGSGSGTDYSLTISNLEQEDIATYFCQQGSTLPFTFGSGTKLEIK
notes: Mouse hybridoma form; the mouse/human chimeric form with the same V regions is m16; also called D41S2 mouse anti-human CD47 hybridoma antibody
B6: D125S3 (antibody, V domains shown)
VH: EVQLVESGGDLVKPGGSLNLSCAASGFTFSDYGMSWVRQTPDMRLEWVATISKYGTYTSYPDSVKGRFTISRSNAKNTLYLQMSSLKSADTALYYCARRFFGNYNYWYFDVWGAGTTVTVSS
VL: DIVLTQSPASLAVSLGQRATFSCRASESVDEFGISYIHWYKKSPGQPPKLLIYRASTLESGISARFSGSGSGTDFTLTINPVETDDVATYYCQQSNQDPLTFGAGTKLELK
notes: Mouse hybridoma form; the mouse/human chimeric form with the same V regions is m18; also called D125S3 mouse anti-human CD47 hybridoma antibody

molecular target: His tagged cynomolgus monkey CD47 (cynomolgus monkey); assay: ELISA, plate coated with His tagged cynomolgus monkey CD47 at 2 ug/ml, goat anti-mouse IgG-HRP, OD450

binding, binds:
B1
B2
B3
B4
B5
B6
